# Measurements taken from PubChem BioAssay AID595 (National Center for Advancing Translational Sciences (NCATS), 2007).
# “And” between values parts separate entries of the source, which are not always exact repeats. Equal values may be shown once. Hit rate of the full screen: of about 71,000 compounds, about 310 (0.44%) were called active. Inconclusive means that the source gave no clear call. Such entries were picked first, then a sample of the others. Calls come from the whole dose curve; as a rule, active = well fitted curve in either direction with a large enough effect; inconclusive = small, poorly fitted or top-dose-only effect, or another doubt; inactive = flat fitted curve, though single readings scatter. Where the call is inconclusive, the potency comes from a doubtful curve fit.
# Tested on: Hsp90 C-terminal peptide / TPR2A (Hop) interaction, human
# Assay: qHTS Assay for Disrupters of an Hsp90 Co-Chaperone Interaction
# Conditions: AlphaScreen TPR2A-His6 binding biotin-Hsp90 C-terminal peptide; activity change, negative = inhibition: at 57 µM (top of the series) unless noted
# From the text: NIH Chemical Genomics Center [NCGC]
# NIH Molecular Libraries Screening Centers Network [MLSCN]
# Hsp90 (heat shock protein 90) is the essential molecular chaperone and it accounts for 1-2% of all cytosolic proteins and is critical for the activity of diverse cellular proteins that are involved in a variety of cellular processes, including development, cell cycle, and steroid hormone signaling. Its client proteins include signaling kinases such as IGF1R, Akt, v-Src, Raf-1; regulators of cell survival such as Bcr-Abl; and transcription factors such as mutated p53, estrogen and progesterone receptors. Hsp90 has emerged as an important target for cancer treatment due to its essential role in maintaining transformation and regulating the function of oncogenic signaling proteins.
# The in vivo function of Hsp90 is regulated by the binding and hydrolysis of ATP at its N-terminal. Geldanamycin binds to ATP site and inhibit Hsp90 function. Geldanamycin and its analogues are under clinical trials in cancer patients.
# This domain contains the binding site for tetratricopeptide repeat (TPR) domains on HOP (Hsp Organizing Protein). TPR is a structural motif used by a significant number of cochaperones by which the in vivo function of Hsp90 is regulated. TPR2A on HOP binds specifically to MEEVD motif of the C-terminal of Hsp90.
# A homogeneous AlphaScreen is developed to assess the interaction between TPR2A and MEEVD motif of the C-terminal of Hsp90 by using the isolated TPR2A domain and a synthesized 20mer Hsp90 C terminal peptide. AlphaScreen is two bead-based proximity-dependent chemical energy transfer luminescent assay platform. TPR2A-His-6 and biotinylated Hsp90 C terminal peptide will bring streptavidin donor beads and nickel chelate acceptor beads to a proximity range (less than 200 nm), and subsequently lead a chemical luminescent reaction upon exciting donor beads with 680 nm laser. Inhibition of TPR2A and MEEVD motif interaction by small molecules could attenuate or abolish this chemical luminescent reaction.
# Counter screening: Biotinylated-His-6 (PerkinElmer) can be utilized as a counter screen, as it serves as a linker to bring streptavidin beads and nickel chelate beads together. The counter screen can exclude alpha screen platform false positives due to small molecules being metal chelators, biotin analogues and imidazole analogues, or due to interfering with oxygen release from donor beads. Such an assay should be utilized to qualify any activity observed in this screen.
# NCGC Assay Protocol Summary:
# The assay was performed on 1536-well white plate (untreated solid bottom). Liquids were dispensed by 1536-well plate washer (Kalypsys, San Diego, CA). Plates were read on EnVision (PerkinElmer, Boston, MA).TPR2A-His6 was produced using a bacteria expression system and purified using a well developed method (Ghosh et al., 2000). Hsp90 C terminal 20-mer peptide with or without an N-terminal biotin group are synthesized using automated solid phase synthesis by the Yale Keck facility. The composition of assay buffer was (in mM) 25 HEPES, 100 KCl, 2 MgCl2 and 2 DTT; 0.1% BSA and 0.01% Tween-20. TPR2A-His6 binding to biotin-Hsp90 will bring streptavidin donor beads and nickel chelate acceptor beads (PerkinElmer) together and can be measured by Alpha reading by EnVision (PerkinElmer). Free Hsp90 blocks biotin-Hsp90 binding to TPR2 and serves as a positive control in the current asssay.
# The assay was performed at room temperature. All compounds were screened as titrations from […] to 46 uM final concentration. The assay was performed in 1536-well format plates (untreated white solid bottom, Corning Inc.) as follows:
# Sequence,Parameter,Value,Description
# 1,Reagent,3 uL TPR2A-His6,Final concentration was 5nM
# 2,Compound,23 nL,Final titration was from 0.7 nM to 46 uM
# 3,Time,15 minutes,Room temperature
# 4,Reagent,1 uL biotin-Hsp90,With and without free Hsp90. Final concentration was 10 nM for biotin-Hsp90 and 10uM for free Hsp90.
# 5,Time,1 hour,Room temperature
# […]
# % is set by controls: 0 for no effect and ±100 for the full control effect; potency is the fitted concentration of half-maximal effect.
SMILES,"activity change, negative = inhibition",Potency
COc1ccccc1-c1noc(-c2ccco2)n1,inactive,
O=C(Nc1ccc(F)cc1)C1CCCCC1,inactive,
Cn1c(=O)oc2cc(S(=O)(=O)N3CCCC(C(=O)NCC4COc5ccccc5O4)C3)ccc21 (centres undefined),inactive: -4.27% [at 2.3 µM],
COC(=O)CSc1nc2c(c(-c3ccco3)c1C#N)CCCC2,inactive,
FC(F)(F)c1ccccc1-c1nccc(NCc2cccs2)n1,inactive,
O=C(O)[C@H]1CCCC[C@@H]1c1c2ccc(=O)c(O)c-2oc2c(O)c(O)ccc12,,"inconclusive: 3.98 µM [inhibitor, single point]"
COc1cccc(C(=O)Nc2cnc(NC(=O)c3ccco3)cc2C)c1,inconclusive: 66.8%,
O=S(=O)(Nc1nccs1)c1ccc2c(c1)OCCO2,inconclusive: 47.1%,
N#CN=C1CCCCCN1CC(N)=O,inconclusive: 42.9%,
O=C(Nc1ccccc1)c1ccc2nc(-c3ccco3)c(-c3ccco3)nc2c1,inactive,
CCc1ccc2oc(=O)cc(CN3CCOCC3)c2c1,inconclusive: 43.5%,
CCOC(=O)c1cnc(-n2nc(C)cc2C)nc1NCc1ccccc1,inactive,
COc1ccccc1CNc1ncncc1-c1cccc(NS(C)(=O)=O)c1,inactive,
COc1ccc(C2=NOC(C(=O)NCc3ccc(F)cc3)C2)cc1OC (centres undefined),inactive,
CCN(C(=O)c1ccnc(C(C)(C)C)c1)c1ccccc1,inactive,
OCc1ccnc2c(O)cccc12,,active: 3.16 µM
CCCc1ccc(Oc2c(-c3ccc(O)c(C)c3O)n[nH]c2C)cc1,inactive,
Cn1c(SCCOc2ccccc2Cl)nnc1-c1ccncc1,inactive,
COC(=O)c1ccc(COC(=O)c2ccccn2)cc1,inactive,
CC1CN(c2oc(COc3ccc(Cl)cc3Cl)nc2C#N)CC(C)O1 (centres undefined),,"inconclusive: 20 µM [inhibitor, partial curve]"
COc1cccc(Cn2c(=O)c(C)nc3cnc(OCc4ccccc4)nc32)c1,inactive,

SMILES,"activity change, negative = inhibition",Potency
Cc1noc(C)c1S(=O)(=O)Nc1ccc(C(=O)NCCc2ccccc2)cc1,inactive,
O=C(NCCCN1CCOCC1)c1ccc(S(=O)(=O)N2CCOCC2)cc1,inconclusive: 35.5%,
COCCn1c(=O)c(-c2cccs2)nc2cnc(Oc3cccc(Cl)c3)nc21,,"inconclusive: 12.6 µM [activator, partial curve]"
O=C(Nc1ccc2c(c1)OCO2)N1CCOCC1,inactive,
COCCN(CCOC)S(=O)(=O)c1ccc(C(=O)Nc2nnc(C)o2)cc1,,"inconclusive: 15.8 µM [inhibitor, partial curve]"
Fc1ccc(NCc2cn3ccccc3n2)cc1,inactive,
O=S(=O)(Nc1cccc2ncccc12)c1cccs1,,active: 15.8 µM
CN(C)c1ncnc2ccc(-c3ccccc3C#N)cc12,inconclusive: 87.3%,
O=C1C2C3CCCC3=C3CCCC3C2C(=O)N1c1ccccc1 (centres undefined),inactive,
CC#C[C@@]1(O)CC[C@@H]2[C@@H]3CCC4=CC(=O)CCC4=C3[C@@H](c3ccc(N(C)C)cc3)C[C@]21C,,"inconclusive: 15.8 µM [inhibitor, partial curve]"
COc1cc(-c2nn3c(Cc4ccccc4)nnc3s2)cc(OC)c1OC,inconclusive: 32.9%,
O=C1COc2ccc3ccccc3c2CN1,inactive,
O=C(c1ccccc1)c1ccc(N2CCNCC2)cc1,inconclusive: 42.3%,
CC(=O)c1ccc2c3c(ccc(O)c13)CC2,,"inconclusive: 3.98 µM [inhibitor, partial curve]"
CCOCC(=O)Nc1nc2ccc(C)cc2s1,inconclusive: 45%,
Cn1cnc2nc3n(c2c1=O)CCC3,inconclusive: 34.6%,
COc1cccc(-c2cc(NCCc3c[nH]c4ccc(OC)cc34)ncn2)c1,,"inconclusive: 20 µM [inhibitor, single point]"
Cc1c(S(=O)(=O)N2CCc3ccccc3C2)c(=O)n(C)c(=O)n1C,inconclusive: 50%,
CCN(CC)CCn1nc(C)nc1-c1ccccc1O,inconclusive: 53.3%,
CC(=O)N1CCC2(CC1)C(C#N)=C(N)Oc1c2sc2nc(C)cc(C)c12,inactive,
Cc1nn(C(=O)c2cccs2)c(N)c1-c1ccccc1,inactive,

# Filtered by structure: the entries above with a Cl atom
SMILES,"activity change, negative = inhibition",Potency
Cn1c(SCCOc2ccccc2Cl)nnc1-c1ccncc1,inactive,
CC1CN(c2oc(COc3ccc(Cl)cc3Cl)nc2C#N)CC(C)O1 (centres undefined),,"inconclusive: 20 µM [inhibitor, partial curve]"
COCCn1c(=O)c(-c2cccs2)nc2cnc(Oc3cccc(Cl)c3)nc21,,"inconclusive: 12.6 µM [activator, partial curve]"

# (more compounds)

SMILES,"activity change, negative = inhibition",Potency
Nc1c(S(=O)(=O)c2cccc(Cl)c2)c2nc3ccccc3nc2n1/N=C/c1ccc(O)c(O)c1,,"inconclusive: 15.8 µM [inhibitor, partial curve]"
COC(=O)c1ccc(CSc2nnc(SCc3ccc(C(=O)OC)o3)s2)o1,inactive,
O=C(Nc1ccc2oc(-c3ccccc3Cl)nc2c1)c1ncn[nH]1,,"inconclusive: 25.1 µM [inhibitor, partial curve]"
CCOc1ccc2[nH]c(C)c(CN3CCCCC3)c(=O)c2c1,inconclusive: 35.7%,
COc1cccc(C(=O)N2CCN=C2SCc2cccnc2)c1OC,inconclusive: 44.9%,
Cc1cc(C)c2cc(CN(Cc3ccc4c(c3)OCO4)Cc3nnnn3Cc3ccco3)c(=O)[nH]c2c1,,"inconclusive: 20 µM [inhibitor, single point]"
CC1(C)Cc2c(C#N)c(NC3CCCCC3)nc(-c3ccco3)c2CO1,,"inconclusive: 3.98 µM [activator, partial curve]"
Cc1ccc(-n2ncc3c(=O)n(CC(=O)OCc4ccccc4)cnc32)cc1,,"inconclusive: 31.6 µM [inhibitor, single point]"
O=C(O)C1CCCN1C(=O)OCc1ccccc1 (centres undefined),inconclusive: 52.2%,
C/C(NCCCn1ccnc1)=C(\C#N)C(N)=O,,"inconclusive: 31.6 µM [inhibitor, partial curve]"
O=C(Cn1cc2c(n1)CCCCC2)NCc1ccccn1,,"inconclusive: 31.6 µM [inhibitor, single point]"
CSCC[C@H](NC(=O)NCc1cccs1)C(=O)O,inconclusive: 51.4%,
Cc1ccc(NC(=O)CSc2nnc(-c3ccc(S(=O)(=O)N4CCOCC4)cc3)n2C)cc1,inconclusive: 87.8%,
Cc1ccc(C2c3sc(=O)[nH]c3SC3C(=O)NC(=O)C32)cc1 (centres undefined),inactive,
CC1(C)Cc2ccccc2-c2nnc(SCC(=O)Nc3nc4ccccc4s3)n21,inconclusive: 48.9%,
O=C(NCCC1=CCCCC1)C1CCCN(S(=O)(=O)c2cccc3cccnc23)C1 (centres undefined),inconclusive: 47.4%,
COc1ccccc1CCn1c(=O)c(-c2cn(C)c3ccccc23)nc2cncnc21,,active: 0.631 µM [activator]
c1ccc(-c2noc(CSc3nnnn3-c3ccccc3)n2)cc1,,"inconclusive: 31.6 µM [activator, single point]"
NCCC[C@@H](CC(=O)N[C@@H]1CCCC[C@H]1C(=O)N[C@H](CC(=O)N[C@@H](CCC(=O)O)CC(=O)O)Cc1ccccc1)NC(=O)C[C@H](CO)NC(=O)[C@@H]1CCCC[C@H]1N,,"inconclusive: 31.6 µM [inhibitor, single point]"
COCCNC(=O)C(c1ccccc1C)N(CCOC)C(=O)Cn1nnc2ccccc21 (centres undefined),inconclusive: 70.1%,
COC(=O)C1=C(C)NC(C)=C(C(=O)OCCCN2CCC(c3ccccc3)(c3ccccc3)CC2)[C@H]1c1cccc([N+](=O)[O-])c1,,"inconclusive: 39.8 µM [inhibitor, single point] and inconclusive: 31.6 µM [inhibitor, partial curve]"

SMILES,"activity change, negative = inhibition",Potency
COc1cccc(C(=O)OC(C)CN2CCCC2)c1 (centres undefined),inconclusive: 48.9%,
CCCSc1nnc(-c2ccccc2NC(=O)CC)c(=O)[nH]1,inconclusive: 45.1%,
Cc1ccccc1NC(=O)C1Cc2ccccc2C(=O)O1 (centres undefined),inconclusive: 45.8%,
S=c1oc(-c2ccncc2)nn1CCc1ccncc1,,"inconclusive: 7.94 µM [inhibitor, partial curve]"
CN(C)CCNCCN,inactive: -1.38% [at 11 µM],
CCCCCNC(=O)c1ccc2c(=O)n(CC3CCCO3)c(=O)[nH]c2c1 (centres undefined),inconclusive: 56.4%,
C[C@@H](C(=O)NCCF)[C@H]1C[C@]1(C)[C@H](NC(=O)OCc1ccccc1)c1ccccc1,inactive,
CCOC(=O)c1ccc2ncc(C(=O)OCC)c(NCCCN3CCOCC3)c2c1,inconclusive: 15%,
Brc1ccc(-c2nn3c(-c4ccccn4)nnc3s2)o1,,active: 7.94 µM
O=C(O)c1ccc(O)cc1O,inconclusive: 49.6%,
O=C(Nc1ccccc1)c1cccc(-c2nnc(-c3ccccc3)o2)c1,inactive,
Cc1ccc(SC(C)c2nc(-c3ccccc3)no2)cc1 (centres undefined),,"inconclusive: 20 µM [activator, single point]"
O=C(CCNC(=O)Cn1ccc2ccccc2c1=O)NCCN1CCN(c2ccccc2F)CC1,inconclusive: 37.9%,
Cn1c(=O)cc(OCCCC(=O)NCCCN2CCN(Cc3ccccc3)CC2)c2ccccc21,inconclusive: 36.4%,
C=CCn1c(SCC(=O)NCC2CCCO2)nc2scc(-c3ccco3)c2c1=O (centres undefined),inactive,
Cc1ccccc1-n1c(SCC(=O)N2CCCC2)nnc1-c1ccccn1,,"inconclusive: 31.6 µM [inhibitor, single point]"
COc1cc(C(=O)NCc2nnc(SCC(=O)NCc3ccccc3)o2)cc(OC)c1OC,inconclusive: 58.7%,
COc1cc2cc3c4cc(OC)c(OC)cc4cc[n+]3c(C)c2cc1OC,,"inconclusive: 12.6 µM [inhibitor, partial curve]"
CS(=O)(=O)N(CC(=O)Nc1ccc2c(c1)OCO2)Cc1ccc(Cl)cc1,inactive,
COc1ccc(-c2nnn(Cc3nc(N)nc(N4CCCCC4)n3)n2)cc1,inconclusive: 45.8%,
CCOC(=O)N1CCN(c2nc3ccccc3nc2C(C#N)C(=O)NCCc2ccccc2)CC1 (centres undefined),inactive,
